Measurements reported in article doi:10.1101/2022.10.31.514466.
Results are given in words; binding and its absence hold for the method and conditions named. In cells and extracts the contact can be indirect. Some results given as binding are weak or reduced against the parent protein; the word gives no strength.

By UniProt entry, the sequences of proteins in these tests, tags left out. Where a name states a change or a piece, a line headed by the entry shows the natural chain unless it says otherwise. Chains listed by the source or under a name are the forms on record and can include a tag or linker.
UniProt O15169: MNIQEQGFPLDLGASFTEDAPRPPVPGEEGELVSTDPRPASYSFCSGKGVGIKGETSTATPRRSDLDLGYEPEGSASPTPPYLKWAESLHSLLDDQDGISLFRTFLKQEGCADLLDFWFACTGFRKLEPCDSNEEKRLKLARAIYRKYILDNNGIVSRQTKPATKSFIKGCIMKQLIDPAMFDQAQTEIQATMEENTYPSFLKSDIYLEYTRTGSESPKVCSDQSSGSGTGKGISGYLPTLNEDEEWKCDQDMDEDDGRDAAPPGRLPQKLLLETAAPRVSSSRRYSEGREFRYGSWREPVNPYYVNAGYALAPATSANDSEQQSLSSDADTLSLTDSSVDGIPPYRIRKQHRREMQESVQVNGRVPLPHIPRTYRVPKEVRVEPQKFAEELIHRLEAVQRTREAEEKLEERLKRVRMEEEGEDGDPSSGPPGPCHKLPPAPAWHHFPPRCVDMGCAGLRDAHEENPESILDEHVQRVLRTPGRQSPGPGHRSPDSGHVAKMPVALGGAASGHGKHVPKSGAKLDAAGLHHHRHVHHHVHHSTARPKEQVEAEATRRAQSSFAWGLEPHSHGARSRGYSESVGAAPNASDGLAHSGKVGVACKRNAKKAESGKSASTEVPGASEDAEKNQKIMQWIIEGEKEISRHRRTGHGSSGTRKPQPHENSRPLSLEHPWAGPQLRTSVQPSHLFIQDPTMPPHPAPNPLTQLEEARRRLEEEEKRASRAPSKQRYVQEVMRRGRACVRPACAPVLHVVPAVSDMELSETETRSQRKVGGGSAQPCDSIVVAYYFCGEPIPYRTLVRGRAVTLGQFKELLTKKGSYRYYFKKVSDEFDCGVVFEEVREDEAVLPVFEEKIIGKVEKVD
UniProt Q14694: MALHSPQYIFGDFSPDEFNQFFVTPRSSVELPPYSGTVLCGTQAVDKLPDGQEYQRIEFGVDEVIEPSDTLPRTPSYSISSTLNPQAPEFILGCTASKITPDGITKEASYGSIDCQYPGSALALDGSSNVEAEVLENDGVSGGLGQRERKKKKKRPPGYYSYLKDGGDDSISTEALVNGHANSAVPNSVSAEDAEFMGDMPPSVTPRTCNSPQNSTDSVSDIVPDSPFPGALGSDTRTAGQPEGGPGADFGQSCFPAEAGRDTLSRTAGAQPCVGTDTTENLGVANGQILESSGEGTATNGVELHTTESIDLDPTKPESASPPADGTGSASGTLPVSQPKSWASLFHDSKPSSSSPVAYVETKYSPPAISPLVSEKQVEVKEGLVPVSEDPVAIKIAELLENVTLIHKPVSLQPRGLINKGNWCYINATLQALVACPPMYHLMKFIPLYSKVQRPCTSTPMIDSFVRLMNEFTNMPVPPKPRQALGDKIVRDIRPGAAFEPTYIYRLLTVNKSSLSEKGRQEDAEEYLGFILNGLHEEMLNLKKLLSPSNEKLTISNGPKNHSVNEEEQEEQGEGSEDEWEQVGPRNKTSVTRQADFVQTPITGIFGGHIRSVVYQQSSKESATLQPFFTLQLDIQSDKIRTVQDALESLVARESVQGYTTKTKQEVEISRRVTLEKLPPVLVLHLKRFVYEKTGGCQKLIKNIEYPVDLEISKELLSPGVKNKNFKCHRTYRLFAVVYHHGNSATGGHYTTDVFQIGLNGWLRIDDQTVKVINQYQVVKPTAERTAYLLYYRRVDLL
GST-USP10 CA (Q14694, form named): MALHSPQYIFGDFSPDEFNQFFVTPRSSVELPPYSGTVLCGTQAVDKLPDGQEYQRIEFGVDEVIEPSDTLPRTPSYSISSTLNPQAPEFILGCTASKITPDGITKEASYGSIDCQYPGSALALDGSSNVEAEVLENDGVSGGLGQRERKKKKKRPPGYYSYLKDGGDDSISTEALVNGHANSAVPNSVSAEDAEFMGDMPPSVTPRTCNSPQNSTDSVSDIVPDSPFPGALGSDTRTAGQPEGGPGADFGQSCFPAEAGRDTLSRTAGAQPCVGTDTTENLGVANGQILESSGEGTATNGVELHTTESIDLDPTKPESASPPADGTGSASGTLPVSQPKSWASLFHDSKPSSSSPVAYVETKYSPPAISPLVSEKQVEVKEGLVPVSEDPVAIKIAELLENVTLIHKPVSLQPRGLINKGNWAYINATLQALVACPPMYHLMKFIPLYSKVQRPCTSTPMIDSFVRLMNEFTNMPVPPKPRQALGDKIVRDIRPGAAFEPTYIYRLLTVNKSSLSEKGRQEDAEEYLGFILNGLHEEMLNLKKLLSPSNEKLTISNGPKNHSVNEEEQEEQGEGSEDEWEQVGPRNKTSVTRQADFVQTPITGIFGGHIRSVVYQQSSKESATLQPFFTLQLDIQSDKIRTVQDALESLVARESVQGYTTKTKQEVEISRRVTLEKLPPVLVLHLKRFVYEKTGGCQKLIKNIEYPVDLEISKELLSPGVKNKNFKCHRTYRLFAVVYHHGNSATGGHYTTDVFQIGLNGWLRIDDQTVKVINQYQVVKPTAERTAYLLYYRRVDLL
UniProt P35222: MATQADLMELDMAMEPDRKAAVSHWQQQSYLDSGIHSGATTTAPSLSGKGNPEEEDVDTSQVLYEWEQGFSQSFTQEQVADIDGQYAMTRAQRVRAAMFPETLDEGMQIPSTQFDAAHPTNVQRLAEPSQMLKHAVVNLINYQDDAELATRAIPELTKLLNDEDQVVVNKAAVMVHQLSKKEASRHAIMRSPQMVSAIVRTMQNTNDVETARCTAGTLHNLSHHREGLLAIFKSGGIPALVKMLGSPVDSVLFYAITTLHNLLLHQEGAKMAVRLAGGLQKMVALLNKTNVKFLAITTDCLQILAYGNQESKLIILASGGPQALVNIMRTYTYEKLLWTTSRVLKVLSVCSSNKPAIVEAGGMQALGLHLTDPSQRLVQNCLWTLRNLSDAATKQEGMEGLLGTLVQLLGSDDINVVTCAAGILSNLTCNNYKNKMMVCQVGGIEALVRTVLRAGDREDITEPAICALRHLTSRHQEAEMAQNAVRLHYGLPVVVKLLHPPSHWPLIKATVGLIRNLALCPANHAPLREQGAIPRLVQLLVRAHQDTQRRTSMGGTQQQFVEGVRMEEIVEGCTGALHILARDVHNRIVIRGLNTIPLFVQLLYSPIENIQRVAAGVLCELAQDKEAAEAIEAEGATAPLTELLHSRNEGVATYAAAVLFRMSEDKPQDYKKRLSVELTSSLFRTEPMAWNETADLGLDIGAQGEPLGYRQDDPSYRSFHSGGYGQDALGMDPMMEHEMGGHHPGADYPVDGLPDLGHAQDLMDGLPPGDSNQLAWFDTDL

Key:
Axin1 (endogenous) = Axin1 (endogenous) (UniProt O15169); experiment: co-IP
[1] = molecular target: GST-USP10 full-length (human) (UniProt Q14694); experiment: pull-down
GST-USP10 CA (human) = GST-USP10 CA (human) (UniProt Q14694); experiment: pull-down

## β-catenin (endogenous) (from UniProt P35222 1-781)
Axin1 (endogenous)
  binding: binds

## Axin1 (prey of the GST-USP10 pull-downs) (from UniProt O15169 1-862)
[1]
  binding: binds
GST-USP10 CA (human)
  binding: binds
